Experimental data: PubChem BioAssay AID1224828 (NIAID, 2016)

Purpose: 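Find genes required for NF-kappaB p65 moving into the nucleus after LPS in mouse macrophages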 (primary screen)
Cell system: mouse RAW264.7 G9 macrophage reporter cells (GFP-p65, Tnf promoter-mCherry)
Knock-down reagent: siRNA pool against mouse genes, 100 nM
Time to read-out: 2 days siRNA transfection, then 40 min LPS before fixation
Challenge: LPS (Salmonella minnesota R595) at 10 ng/ml
Read-out: 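Imaged p65 nuclear translocation ratio, normalised to the plate median, converted to robust z-scores and averaged across two replicates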
Direction: p65 translocation robust z-score: higher = more nuclear NF-kappaB p65 after LPS than the plate median; nuclear/cytoplasmic p65 ratio: higher = more nuclear NF-kappaB p65
Active means: 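Active if robust z is above 3.3 (negative regulators) or below -1.56, the Tlr4 control median (positive regulators); activity score 50 or more; control wells not called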
Meaning of the calls: active = hit (p65 shift raised or lowered); inactive = no clear change
Shown is a random part of about 17,000 reagents tested. Over the whole deposit, 762 (4.5%) are marked active. 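Active calls include both raised and lowered p65 entry, mostly lowered; wells with fewer than 50 cells lack a z-score.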 Raw values vary from plate to plate and are shown uncorrected.

For Blnk, how do the results read?
p65 translocation robust z-score: -0.58; nuclear/cytoplasmic p65 ratio, rep 1: 1.56; nuclear/cytoplasmic p65 ratio, rep 2: 1.34; low cell count flag: enough cells to score; call: inactive

What is on record for AW551984?
p65 translocation robust z-score: 0.43; nuclear/cytoplasmic p65 ratio, rep 1: 1.69; nuclear/cytoplasmic p65 ratio, rep 2: 1.55; low cell count flag: enough cells to score; call: inactive

What did the screen give for Maf1?
p65 translocation robust z-score: 1.7; nuclear/cytoplasmic p65 ratio, rep 1: 1.97; nuclear/cytoplasmic p65 ratio, rep 2: 1.8; low cell count flag: enough cells to score; call: inactive

What is on record for Klra20?
p65 translocation robust z-score: -0.43; nuclear/cytoplasmic p65 ratio, rep 1: 1.44; nuclear/cytoplasmic p65 ratio, rep 2: 1.32; low cell count flag: enough cells to score; call: inactive

What did the screen give for Ggcx?
p65 translocation robust z-score: 0.17; nuclear/cytoplasmic p65 ratio, rep 1: 1.48; nuclear/cytoplasmic p65 ratio, rep 2: 1.37; low cell count flag: enough cells to score; call: inactive

What did the screen give for Or13d1?
p65 translocation robust z-score: 0.86; nuclear/cytoplasmic p65 ratio, rep 1: 1.71; nuclear/cytoplasmic p65 ratio, rep 2: 1.56; low cell count flag: enough cells to score; call: inactive

How did the screen score Fbxo24?
p65 translocation robust z-score: -0.01; nuclear/cytoplasmic p65 ratio, rep 1: 1.32; nuclear/cytoplasmic p65 ratio, rep 2: 1.5; low cell count flag: enough cells to score; call: inactive

Which result is listed for Cdc23?
p65 translocation robust z-score: 0.57; nuclear/cytoplasmic p65 ratio, rep 1: 1.69; nuclear/cytoplasmic p65 ratio, rep 2: 1.32; low cell count flag: enough cells to score; call: inactive

What is on record for Arhgef2?
p65 translocation robust z-score: -0.36; nuclear/cytoplasmic p65 ratio, rep 1: 1.58; nuclear/cytoplasmic p65 ratio, rep 2: 1.55; low cell count flag: enough cells to score; call: inactive

With Or2t1, how do the results read?
p65 translocation robust z-score: 1.47; nuclear/cytoplasmic p65 ratio, rep 1: 1.86; nuclear/cytoplasmic p65 ratio, rep 2: 1.59; low cell count flag: enough cells to score; call: inactive

Which result is listed for Relt?
p65 translocation robust z-score: -0.68; nuclear/cytoplasmic p65 ratio, rep 1: 1.36; nuclear/cytoplasmic p65 ratio, rep 2: 1.48; low cell count flag: enough cells to score; call: inactive

For Metap1, how do the results read?
p65 translocation robust z-score: -0.59; nuclear/cytoplasmic p65 ratio, rep 1: 1.31; nuclear/cytoplasmic p65 ratio, rep 2: 1.32; low cell count flag: enough cells to score; call: inactive

What did the screen give for Stx17?
p65 translocation robust z-score: -0.19; nuclear/cytoplasmic p65 ratio, rep 1: 1.37; nuclear/cytoplasmic p65 ratio, rep 2: 1.55; low cell count flag: enough cells to score; call: inactive

With Capza1, what was measured?
p65 translocation robust z-score: -0.67; nuclear/cytoplasmic p65 ratio, rep 1: 1.49; nuclear/cytoplasmic p65 ratio, rep 2: 1.54; low cell count flag: enough cells to score; call: inactive

Which result is listed for Eral1?
p65 translocation robust z-score: 0.56; nuclear/cytoplasmic p65 ratio, rep 1: 1.5; nuclear/cytoplasmic p65 ratio, rep 2: 1.48; low cell count flag: enough cells to score; call: inactive

For Cox14, what was measured?
nuclear/cytoplasmic p65 ratio, rep 1: 1.28; nuclear/cytoplasmic p65 ratio, rep 2: 1.25; low cell count flag: fewer than 50 cells per well; well left out of scoring; call: inactive

What did the screen give for Cd209a?
p65 translocation robust z-score: -1.94; nuclear/cytoplasmic p65 ratio, rep 1: 1.31; nuclear/cytoplasmic p65 ratio, rep 2: 1.5; low cell count flag: enough cells to score; call: active

What did the screen give for Slc2a3?
p65 translocation robust z-score: 1.24; nuclear/cytoplasmic p65 ratio, rep 1: 1.68; nuclear/cytoplasmic p65 ratio, rep 2: 1.71; low cell count flag: enough cells to score; call: inactive

With Rhox9, what was measured?
nuclear/cytoplasmic p65 ratio, rep 1: 1.15; nuclear/cytoplasmic p65 ratio, rep 2: 0.94; low cell count flag: fewer than 50 cells per well; well left out of scoring; call: inactive

How did the screen score Pramel32?
p65 translocation robust z-score: 1.48; nuclear/cytoplasmic p65 ratio, rep 1: 1.87; nuclear/cytoplasmic p65 ratio, rep 2: 1.96; low cell count flag: enough cells to score; call: inactive

For Frmd4a, how do the results read?
p65 translocation robust z-score: -0.3; nuclear/cytoplasmic p65 ratio, rep 1: 1.36; nuclear/cytoplasmic p65 ratio, rep 2: 1.46; low cell count flag: enough cells to score; call: inactive
